The list is a part of this screen's results and no random one: its compounds were picked by chemical class. Other doses and runs of a compound may be missing. T/C: endpoint of the treated group in % of that of the vehicle group. For survival time, the PubChem record calls one and a half times the control and up active, and a quarter to a half above the control has no call in these data; cut-offs in other NCI protocols can differ. Schedule codes are those of the source, read here as Q, the interval in days (D) or hours (H), X, the number of doses. Some entries show no survivor count and are marked so; the dose need not have been tolerated. Signs of the kind (2×) stand for listed records that agree. Some entries hold several experiments; the values are given in rising order.
Tested on: P388 leukemia ip, CD2F1 mice, survival T/C
Assay: NCI In Vivo Anticancer Drug Screen. Data for tumor model P388 Leukemia (intraperitoneal) in CD2F1 (CDF1) mice
Conditions: T/C endpoint: median survival time, higher T/C = longer survival

CC(=O)OCC12CCC(C)=CC1OC1C(O)C(OC(C)=O)C2(C)C12CO2 (configuration not stated)
T/C (dose: 1.0 mg/kg/injection, schedule: Q01DX005 (iv), vehicle: saline): 151 % of control [survivor count not shown]
T/C (dose: 1.0 mg/kg/injection, schedule: Q01DX009 (ip), vehicle: saline + alcohol, evaluated on day 30): 166 [survivor count not shown], 172 [survivor count not shown], 187 % of control [survivor count not shown]
T/C (dose: 1.0 mg/kg/injection, schedule: Q01DX009 (ip), vehicle: saline + alcohol, evaluated on day 35): 201 % of control [survivor count not shown]
T/C (dose: 1.0 mg/kg/injection, schedule: Q01DX009 (ip), vehicle: saline sonified): 129 % of control [survivor count not shown]
T/C (dose: 1.0 mg/kg/injection, schedule: Q01DX009 (ip), vehicle: saline with Tween-80): 142 [survivor count not shown], 167 [survivor count not shown], 176 % of control [survivor count not shown]
T/C (dose: 1.0 mg/kg/injection, schedule: Q01DX009 (ip), vehicle: saline, evaluated on day 5): 181 [survivor count not shown] and 187 % of control [survivor count not shown]
T/C (dose: 1.0 mg/kg/injection, schedule: Q01DX009 (ip), vehicle: saline, evaluated on day 30): 100 [survivor count not shown], 133 [survivor count not shown], 155 [survivor count not shown], 162 [survivor count not shown], 173 [survivor count not shown], 174 [survivor count not shown], 175 [survivor count not shown], 183 [survivor count not shown], 217 % of control [survivor count not shown]
T/C (dose: 1.0 mg/kg/injection, schedule: Q01DX009 (ip), vehicle: saline, evaluated on day 60): 170 % of control [survivor count not shown]
T/C (dose: 1.0 mg/kg/injection, schedule: Q01DX009 (ip), vehicle: water, evaluated on day 30): 158 [survivor count not shown], 163 [survivor count not shown], 172 [survivor count not shown], 175 [survivor count not shown], 183 % of control [survivor count not shown]
T/C (dose: 1.0 mg/kg/injection, schedule: Q01DX009 (ip), vehicle: water, evaluated on day 45): 187 % of control [survivor count not shown]
T/C (dose: 1.0 mg/kg/injection, schedule: Q01DX009 (iv), vehicle: saline): 163 % of control [survivor count not shown]
T/C (dose: 1.0 mg/kg/injection, schedule: Q01DX009 (oral), vehicle: saline): 130 % of control [survivor count not shown]
T/C (dose: 1.0 mg/kg/injection, schedule: Q01DX009 (sc), vehicle: saline): 170 % of control [survivor count not shown]
T/C (dose: 1.0 mg/kg/injection, schedule: Q03HX024 (ip), vehicle: saline): 190 % of control [survivor count not shown]
T/C (dose: 1.94 mg/kg/injection, schedule: Q04DX003 (ip), vehicle: saline): 146 % of control [survivor count not shown]
T/C (dose: 2.0 mg/kg/injection, schedule: Q01DX001 (ip), vehicle: saline): 118 % of control [survivor count not shown]
T/C (dose: 2.0 mg/kg/injection, schedule: Q01DX005 (ip), vehicle: saline): 158 % of control [survivor count not shown]
T/C (dose: 2.0 mg/kg/injection, schedule: Q01DX005 (ip), vehicle: water): 166 [survivor count not shown] and 175 % of control [survivor count not shown]
T/C (dose: 2.0 mg/kg/injection, schedule: Q01DX005 (iv), vehicle: saline): 98 % of control [survivor count not shown]
T/C (dose: 2.0 mg/kg/injection, schedule: Q01DX009 (ip), vehicle: saline + alcohol, evaluated on day 30): 187 [survivor count not shown], 188 [survivor count not shown], 189 % of control [survivor count not shown]
T/C (dose: 2.0 mg/kg/injection, schedule: Q01DX009 (ip), vehicle: saline + alcohol, evaluated on day 35): 192 % of control [survivor count not shown]
T/C (dose: 2.0 mg/kg/injection, schedule: Q01DX009 (ip), vehicle: saline with Tween-80): 151 [survivor count not shown], 169 [survivor count not shown], 209 % of control [survivor count not shown]
T/C (dose: 2.0 mg/kg/injection, schedule: Q01DX009 (ip), vehicle: saline, evaluated on day 5): 178 [survivor count not shown] and 229 % of control [survivor count not shown]
T/C (dose: 2.0 mg/kg/injection, schedule: Q01DX009 (ip), vehicle: saline, evaluated on day 30): 174 [survivor count not shown], 183 [survivor count not shown], 184 [survivor count not shown], 189 [survivor count not shown], 191 [survivor count not shown], 200 [survivor count not shown], 202 % of control [survivor count not shown]
T/C (dose: 2.0 mg/kg/injection, schedule: Q01DX009 (ip), vehicle: water, evaluated on day 30): 187 [survivor count not shown], 199 [survivor count not shown] (2×), 207 [survivor count not shown], 211 % of control [survivor count not shown]
T/C (dose: 2.0 mg/kg/injection, schedule: Q01DX009 (ip), vehicle: water, evaluated on day 45): 202 % of control [survivor count not shown]
T/C (dose: 2.0 mg/kg/injection, schedule: Q01DX009 (oral), vehicle: saline): 190 % of control [survivor count not shown]
T/C (dose: 2.0 mg/kg/injection, schedule: Q04DX002 (ip), vehicle: saline + alcohol): 120 [survivor count not shown], 122 [survivor count not shown], 123 [survivor count not shown], 126 [survivor count not shown], 129 % of control [survivor count not shown]
T/C (dose: 2.0 mg/kg/injection, schedule: Q04DX003 (ip), vehicle: saline): 136 % of control [survivor count not shown]
T/C (dose: 2.59 mg/kg/injection, schedule: Q04DX003 (ip), vehicle: saline): 142 % of control [survivor count not shown]
T/C (dose: 4.0 mg/kg/injection, schedule: Q01DX001 (ip), vehicle: saline): 122 [survivor count not shown] and 123 % of control [survivor count not shown]
T/C (dose: 4.0 mg/kg/injection, schedule: Q01DX001 (iv), vehicle: saline): 125 % of control [survivor count not shown]
T/C (dose: 4.0 mg/kg/injection, schedule: Q01DX001 (oral), vehicle: saline): 125 % of control [survivor count not shown]
T/C (dose: 4.0 mg/kg/injection, schedule: Q01DX001 (sc), vehicle: saline): 113 % of control [survivor count not shown]
T/C (dose: 4.0 mg/kg/injection, schedule: Q01DX005 (ip), vehicle: saline): 178 % of control [survivor count not shown]
T/C (dose: 4.0 mg/kg/injection, schedule: Q01DX005 (ip), vehicle: water): 177 [survivor count not shown] and 180 % of control [survivor count not shown]
T/C (dose: 4.0 mg/kg/injection, schedule: Q01DX009 (ip), vehicle: saline + alcohol, evaluated on day 30): 100 [survivor count not shown], 112 [survivor count not shown], 198 % of control [survivor count not shown]
T/C (dose: 4.0 mg/kg/injection, schedule: Q01DX009 (ip), vehicle: saline + alcohol, evaluated on day 35): 122 % of control [survivor count not shown]
T/C (dose: 4.0 mg/kg/injection, schedule: Q01DX009 (ip), vehicle: saline with Tween-80): 169 [survivor count not shown], 185 [survivor count not shown], 219 % of control [survivor count not shown]
T/C (dose: 4.0 mg/kg/injection, schedule: Q01DX009 (ip), vehicle: saline, evaluated on day 5): 86 % of control [survivor count not shown] (2×)
T/C (dose: 4.0 mg/kg/injection, schedule: Q01DX009 (ip), vehicle: saline, evaluated on day 30): 88 [survivor count not shown], 97 [survivor count not shown], 198 [survivor count not shown], 211 [survivor count not shown], 214 [survivor count not shown], 232 % of control [survivor count not shown]
T/C (dose: 4.0 mg/kg/injection, schedule: Q01DX009 (ip), vehicle: saline, evaluated on day 60): 155 % of control [survivor count not shown]
T/C (dose: 4.0 mg/kg/injection, schedule: Q01DX009 (ip), vehicle: water): 86 [survivor count not shown] and 113 % of control [survivor count not shown]
T/C (dose: 4.0 mg/kg/injection, schedule: Q01DX009 (oral), vehicle: saline): 110 % of control [survivor count not shown]
T/C (dose: 4.0 mg/kg/injection, schedule: Q04DX002 (ip), vehicle: saline + alcohol): 127 [survivor count not shown] (2×), 128 [survivor count not shown], 129 [survivor count not shown], 132 % of control [survivor count not shown]
T/C (dose: 4.0 mg/kg/injection, schedule: Q04DX003 (ip), vehicle: saline): 145 [survivor count not shown] and 154 % of control [survivor count not shown]
T/C (dose: 4.0 mg/kg/injection, schedule: Q08DX002 (ip), vehicle: saline): 118 [survivor count not shown] and 127 % of control [survivor count not shown]
T/C (dose: 4.32 mg/kg/injection, schedule: Q04DX003 (ip), vehicle: saline): 149 % of control [survivor count not shown]
T/C (dose: 5.4 mg/kg/injection, schedule: Q04DX003 (ip), vehicle: saline): 147 % of control [survivor count not shown]
T/C (dose: 7.2 mg/kg/injection, schedule: Q04DX003 (ip), vehicle: saline): 160 % of control [survivor count not shown]
T/C (dose: 8.0 mg/kg/injection, schedule: Q01DX001 (ip), vehicle: saline): 123 % of control [survivor count not shown]
T/C (dose: 8.0 mg/kg/injection, schedule: Q01DX001 (iv), vehicle: saline): 130 % of control [survivor count not shown]
T/C (dose: 8.0 mg/kg/injection, schedule: Q04DX002 (ip), vehicle: saline + alcohol): 122 [survivor count not shown], 127 [survivor count not shown] (2×), 135 % of control [survivor count not shown]
T/C (dose: 8.0 mg/kg/injection, schedule: Q04DX003 (ip), vehicle: saline): 145 % of control [survivor count not shown] (2×)
T/C (dose: 8.0 mg/kg/injection, schedule: Q08DX002 (ip), vehicle: saline): 136 % of control [survivor count not shown] (2×)
T/C (dose: 16.0 mg/kg/injection, schedule: Q04DX002 (ip), vehicle: saline + alcohol): 142 % of control [survivor count not shown]
T/C (dose: 16.0 mg/kg/injection, schedule: Q08DX002 (ip), vehicle: saline): 90 % of control [survivor count not shown]

Reference: PubChem BioAssay AID330 (DTP/NCI, 2004)
